PubChem BioAssay AID1259254 – NCATS, 2017

Test: 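Genome-wide screen for genes that prevent DNA re-replication in cancer cells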 (primary screen)
Cells: human HCT116 colorectal cancer cells
Reagent: single siRNA against human genes
Timing: 3 days
Measured: 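Nuclei stained with Hoechst and imaged; cell-cycle phase assigned by DNA content; G2 share scaled per plate, non-targeting siRNA 0%, GMNN siRNA 100%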
Scale: G2 robust z-score and G2 cells, % of GMNN control: higher = more G2 cells, more excess DNA replication
Active means: 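An siRNA counts as active if its G2 robust z-score lies at least 5 MADs above the screen median; here such calls match roughly 38% of GMNN control or more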
In all, the deposit lists about 59,000 reagents; below is a part drawn at random. About 1,550 of all reagents (2.6%) count as active. 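G2 share is only a proxy for re-replication; each gene was hit by three separate siRNAs, and active genes were retested.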 Reagents against one gene are numbered here. Further read-outs or replicates are left out here. The record does not give: the amount of reagent.

Silencing of TMC3 (transmembrane channel like 3) #1 came out at: G2 robust z-score -0.175; G2 cells, % of GMNN control 1.74; inactive. For TMC3 (transmembrane channel like 3) #2, the values are G2 robust z-score 0.346; G2 cells, % of GMNN control 5.4; inactive. TMC3 (transmembrane channel like 3) #3 scored G2 robust z-score -0.426; G2 cells, % of GMNN control -0.0316; inactive. NOTCH2 (notch receptor 2) #1 scored G2 robust z-score 1.22; G2 cells, % of GMNN control 11.5; inactive. Silencing of NOTCH2 (notch receptor 2) #2 resulted in: G2 robust z-score -1.11; G2 cells, % of GMNN control -4.81; inactive. NOTCH2 (notch receptor 2) #3 showed G2 robust z-score -0.547; G2 cells, % of GMNN control -0.88; inactive.

After knock-down of CHD4 (chromodomain helicase DNA binding protein 4) #1 the results were G2 robust z-score 0.0511; G2 cells, % of GMNN control 3.33; inactive. After knock-down of CHD4 (chromodomain helicase DNA binding protein 4) #2, the screen gave G2 robust z-score -0.991; G2 cells, % of GMNN control -4.01; inactive. With knock-down of CHD4 (chromodomain helicase DNA binding protein 4) #3 the results were G2 robust z-score 0.238; G2 cells, % of GMNN control 4.64; inactive. After knock-down of EFNA5 (ephrin A5) #1, the record shows G2 robust z-score 0.682; G2 cells, % of GMNN control 7.77; inactive. EFNA5 (ephrin A5) #2 showed G2 robust z-score -0.565; G2 cells, % of GMNN control -1.01; inactive. Against EFNA5 (ephrin A5) #3, the values are G2 robust z-score 4.76; G2 cells, % of GMNN control 36.4; inactive.

With knock-down of BCAP31 (B cell receptor associated protein 31) #1, the screen gave G2 robust z-score -0.445; G2 cells, % of GMNN control -0.163; inactive. After knock-down of BCAP31 (B cell receptor associated protein 31) #2, the record shows G2 robust z-score -0.517; G2 cells, % of GMNN control -0.67; inactive. With knock-down of BCAP31 (B cell receptor associated protein 31) #3 the results were G2 robust z-score 2.73; G2 cells, % of GMNN control 22.2; inactive. With knock-down of FUNDC1 (FUN14 domain containing 1) #1 the results were G2 robust z-score -0.188; G2 cells, % of GMNN control 1.64; inactive. Against FUNDC1 (FUN14 domain containing 1) #2, the values are G2 robust z-score 2.55; G2 cells, % of GMNN control 20.9; inactive. For FUNDC1 (FUN14 domain containing 1) #3, the entry reads G2 robust z-score -0.254; G2 cells, % of GMNN control 1.18; inactive.

With knock-down of DDX59 (DEAD-box helicase 59) #1, the screen gave G2 robust z-score -0.241; G2 cells, % of GMNN control 1.27; inactive. For DDX59 (DEAD-box helicase 59) #2, the entry reads G2 robust z-score -0.613; G2 cells, % of GMNN control -1.35; inactive. With knock-down of DDX59 (DEAD-box helicase 59) #3, the record shows G2 robust z-score 0.378; G2 cells, % of GMNN control 5.63; inactive. Silencing of DDX54 (DEAD-box helicase 54) #1 gave: G2 robust z-score 0.878; G2 cells, % of GMNN control 9.15; inactive. DDX54 (DEAD-box helicase 54) #2 showed G2 robust z-score 0.432; G2 cells, % of GMNN control 6; inactive. Knock-down of DDX54 (DEAD-box helicase 54) #3 gave: G2 robust z-score -0.278; G2 cells, % of GMNN control 1.01; inactive.

2 consecutive records already listed, for reference:
FUNDC1 (FUN14 domain containing 1) #3 → G2 robust z-score: -0.254; G2 cells, % of GMNN control: 1.18; activity call: inactive
DDX59 (DEAD-box helicase 59) #1 → G2 robust z-score: -0.241; G2 cells, % of GMNN control: 1.27; activity call: inactive
